These are yes or no findings as the source states them, for the method shown. In cells and extracts the contact can be indirect. Some entries that bind do so weakly or less than the wild type.
Experiments:
[1] = target: FLAG-tagged MCM7, full length (UniProt P33993); assay: co-IP; HEK293T cells transiently transfected with Myc-PRMT5 and/or FLAG-MCM7; IP with anti-FLAG antibody beads overnight at 4°C
[2] = target: Myc-tagged PRMT5, full length (human) (UniProt O14744); assay: co-IP; HEK293T cells transiently transfected with Myc-PRMT5 and/or FLAG-MCM7 (full length or truncations); IP with anti-Myc antibody beads overnight at 4°C; blot with anti-FLAG or anti-Myc

Sequences of proteins named here, by UniProt entry; tags and fusion partners are left off. A change or cut given only in a name is not applied to a line headed by its entry.
UniProt P33993: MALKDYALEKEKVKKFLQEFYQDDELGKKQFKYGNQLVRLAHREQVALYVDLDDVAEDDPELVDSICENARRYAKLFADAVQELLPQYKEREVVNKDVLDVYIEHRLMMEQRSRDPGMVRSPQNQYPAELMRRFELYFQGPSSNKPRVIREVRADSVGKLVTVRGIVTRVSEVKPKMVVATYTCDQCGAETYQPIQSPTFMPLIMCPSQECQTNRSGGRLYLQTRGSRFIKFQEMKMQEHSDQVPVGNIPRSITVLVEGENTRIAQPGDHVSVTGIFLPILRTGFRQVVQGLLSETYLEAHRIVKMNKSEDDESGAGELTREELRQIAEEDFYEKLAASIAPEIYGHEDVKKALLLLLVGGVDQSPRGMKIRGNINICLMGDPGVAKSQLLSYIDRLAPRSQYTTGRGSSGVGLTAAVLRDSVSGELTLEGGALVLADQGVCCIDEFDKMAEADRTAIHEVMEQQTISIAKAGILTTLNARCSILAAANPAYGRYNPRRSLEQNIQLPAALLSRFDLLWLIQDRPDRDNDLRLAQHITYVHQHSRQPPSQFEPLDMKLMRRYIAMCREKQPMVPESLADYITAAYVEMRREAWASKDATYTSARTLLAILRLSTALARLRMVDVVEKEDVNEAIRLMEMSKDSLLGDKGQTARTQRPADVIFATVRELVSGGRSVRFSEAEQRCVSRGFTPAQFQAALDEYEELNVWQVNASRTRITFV
UniProt O14744: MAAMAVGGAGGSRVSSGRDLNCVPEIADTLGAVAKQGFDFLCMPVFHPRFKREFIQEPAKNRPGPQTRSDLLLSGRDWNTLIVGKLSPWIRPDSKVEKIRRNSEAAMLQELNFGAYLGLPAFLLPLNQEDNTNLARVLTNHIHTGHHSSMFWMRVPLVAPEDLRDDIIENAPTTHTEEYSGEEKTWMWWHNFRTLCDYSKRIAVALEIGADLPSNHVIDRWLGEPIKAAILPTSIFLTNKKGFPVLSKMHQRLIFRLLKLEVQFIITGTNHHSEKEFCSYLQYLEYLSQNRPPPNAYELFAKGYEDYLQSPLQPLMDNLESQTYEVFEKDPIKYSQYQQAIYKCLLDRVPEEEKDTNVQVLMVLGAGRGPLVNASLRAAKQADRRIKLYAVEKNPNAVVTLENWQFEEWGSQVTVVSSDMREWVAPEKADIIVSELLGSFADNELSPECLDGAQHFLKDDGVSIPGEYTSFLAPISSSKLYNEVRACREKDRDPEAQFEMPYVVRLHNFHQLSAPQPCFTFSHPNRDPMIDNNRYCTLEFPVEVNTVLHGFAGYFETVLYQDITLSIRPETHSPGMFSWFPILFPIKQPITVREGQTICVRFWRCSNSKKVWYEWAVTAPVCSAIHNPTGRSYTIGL

| binding [1] | binding [2] | Substance |
| --- | --- | --- |
| binds |  | Myc-tagged PRMT5, full length (from UniProt O14744 1-637) (enzyme) |
|  | no binding | FLAG-tagged MCM7 truncation, residues 249-427 (from UniProt P33993 249-427) (domain or fragment) |
|  | binds | FLAG-tagged MCM7 truncation, residues 1-248 (from UniProt P33993 1-248) (domain or fragment) |
|  | no binding | FLAG-tagged MCM7 truncation, residues 428-719 (from UniProt P33993 428-719) (domain or fragment) |

Source: paper PMC8034445
